Results as given in article PMC3494694.
No constants are given. Whether binding was seen depends on the method and setting. Binding seen in cells or lysates may run through a third protein. Binding calls can cover weak binding; strength is not graded here.

The chains behind the UniProt entries cited, without tags or fusion partners. Where a name states a change or a piece, a line headed by the entry shows the natural chain unless it says otherwise.
UniProt C0KWE9: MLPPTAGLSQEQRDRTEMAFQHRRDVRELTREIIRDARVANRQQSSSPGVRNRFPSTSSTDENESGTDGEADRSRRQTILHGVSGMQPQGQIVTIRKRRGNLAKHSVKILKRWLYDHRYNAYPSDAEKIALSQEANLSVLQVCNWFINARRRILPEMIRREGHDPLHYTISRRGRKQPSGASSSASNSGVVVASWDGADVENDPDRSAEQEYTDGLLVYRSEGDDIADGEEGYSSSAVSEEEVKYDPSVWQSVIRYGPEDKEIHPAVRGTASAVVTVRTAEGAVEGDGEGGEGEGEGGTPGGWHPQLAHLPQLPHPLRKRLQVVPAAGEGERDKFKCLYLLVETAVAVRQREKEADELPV
UniProt D0V0M8: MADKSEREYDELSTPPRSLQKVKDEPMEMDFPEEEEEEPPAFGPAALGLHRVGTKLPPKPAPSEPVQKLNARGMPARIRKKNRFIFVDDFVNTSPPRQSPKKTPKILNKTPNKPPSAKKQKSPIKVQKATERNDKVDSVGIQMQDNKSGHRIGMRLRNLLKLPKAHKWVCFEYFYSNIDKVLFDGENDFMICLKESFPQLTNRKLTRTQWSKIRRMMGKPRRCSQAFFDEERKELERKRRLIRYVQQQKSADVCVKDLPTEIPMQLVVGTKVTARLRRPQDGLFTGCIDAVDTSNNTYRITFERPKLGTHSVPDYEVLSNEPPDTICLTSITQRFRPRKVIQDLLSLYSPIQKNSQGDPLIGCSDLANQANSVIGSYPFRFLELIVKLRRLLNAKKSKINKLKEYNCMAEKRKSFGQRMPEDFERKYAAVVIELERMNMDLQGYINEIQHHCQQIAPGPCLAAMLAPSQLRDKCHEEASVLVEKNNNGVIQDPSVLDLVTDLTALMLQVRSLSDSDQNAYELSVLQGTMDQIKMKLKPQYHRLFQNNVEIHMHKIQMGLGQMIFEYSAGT

What was measured:
[1] = biological target: BmTGIF-L (Bombyx mori (endogenous in testes)) (UniProt C0KWE9); experiment: co-IP; extracts of about 30 B. mori testes in RIPA buffer (50 mM Tris pH 7.5, 150 mM NaCl, 20 mM MgCl2, 0.5% NP40), precleared with pre-immune antiserum; IP with BmTGIF antibody (1:100) at 4°C overnight, protein G Plus/Protein A agarose, blot with anti-BmAly; and the reverse (IP with BmAly antibody, blot with BmTGIF antibody); control: pre-immune antiserum
[2] = biological target: BmAly (Bombyx mori (endogenous in testes)) (UniProt D0V0M8); experiment: as above

Row | binding [1] | binding [2] | Substance
1 | binds | – | BmAly (from UniProt D0V0M8)
2 | – | binds | BmTGIF-L (from UniProt C0KWE9)
